Test results reported in patent publication US11806366B2, “Peptides and combination of peptides for use in immunotherapy against epithelial ovarian cancer and other cancers” (Immatics Biotechnologies GmbH, priority 2015, dated 2023).
Values joined by “and” are separate entries in the source; they are usually repeats but may differ in a detail not shown here. Equal values may be shown once.

Each substance was assayed on HLA class I molecules of EOC tissue (assay: HLA class I ligandome (immunopeptidome) analysis by LC-MS/MS, comparative profiling EOC vs benign tissues). Conditions: HLA class I ligands; number of samples per tissue (OvCa, PBMCs, Liver, Kidney); Table 9.
Set-up: species or system human

Substance	Sources of presentation
550 (ALLPAVPSL; listed as Homo sapiens) [compound 550]	1× OvCa
551 (GRNSFEVRV; listed as Homo sapiens) [compound 551]	1× PBMC, and 1× Liver, and 1× Kidney, and 1× OvCa
554 (TYLPTNASLSF; listed as Homo sapiens) [compound 554]	2× OvCa
555 (GVFRGIQDV; listed as Homo sapiens) [compound 555]	2× OvCa
556 (LMSVYVVEL; listed as Homo sapiens) [compound 556]	2× PBMCs
557 (QRNMTKLQL; listed as Homo sapiens) [compound 557]	2× OvCa, and 1× Liver, and 1× PBMCs

Each substance was assayed on HLA class II molecules of EOC tissue (assay: HLA class II ligandome (immunopeptidome) analysis by LC-MS/MS, comparative profiling EOC vs benign tissues). Conditions: HLA class II ligands of Her2neu; number of samples per tissue (OvCa, PBMCs, Liver, Kidney); Table 9.
Set-up: species or system human

Substance	Sources of presentation
291 (DPSPLQRYSEDPTVPLPS; listed as Homo sapiens) [compound 291]	1× OvCa
292 (DPSPLQRYSEDPTVPLPSE; listed as Homo sapiens) [compound 292]	2× OvCa
293 (ELVSEFSRMARD; listed as Homo sapiens) [compound 293]	1× OvCa
294 (ELVSEFSRMARDPQ; listed as Homo sapiens) [compound 294]	2× PBMCs
295 (IPVAIKVLRENTSPKANKE; listed as Homo sapiens) [compound 295]	2× PBMCs, and 1× Kidney
296 (RRLLQETELVEPLTPS; listed as Homo sapiens) [compound 296]	1× OvCa
297 (SPQPEYVNQPDVRPQPP; listed as Homo sapiens) [compound 297]	2× Liver
298 (VKPDLSYMPIWKFPDE; listed as Homo sapiens) [compound 298]	1× OvCa
